No constants are given. Whether binding was seen depends on the method and setting. Binding seen in cells or lysates may run through a third protein. Some binding calls cover weakened binding; strength is not graded here. Tags and fused reporters may be left off the sequences shown.
Target: T1, Flag-IRF3 (UniProt Q14653)
T1 sequence: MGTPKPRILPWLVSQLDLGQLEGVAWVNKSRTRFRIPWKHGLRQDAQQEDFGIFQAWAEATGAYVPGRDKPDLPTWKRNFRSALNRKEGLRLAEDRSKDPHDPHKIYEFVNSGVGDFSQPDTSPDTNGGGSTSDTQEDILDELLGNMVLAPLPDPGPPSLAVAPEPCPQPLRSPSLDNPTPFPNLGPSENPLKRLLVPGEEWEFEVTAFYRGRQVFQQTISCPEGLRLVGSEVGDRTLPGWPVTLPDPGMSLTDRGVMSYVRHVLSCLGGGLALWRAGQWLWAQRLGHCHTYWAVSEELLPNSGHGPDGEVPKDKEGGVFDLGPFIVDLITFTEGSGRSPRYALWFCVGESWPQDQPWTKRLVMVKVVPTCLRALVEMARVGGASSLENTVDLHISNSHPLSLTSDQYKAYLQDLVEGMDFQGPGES
Assay: co-IP; HEK293T co-transfected with Flag-IRF3, His-UBE2J1 and HA-ubiquitin (or HA-K48 or HA-K63 ubiquitin); MG132 20 uM for 6 h before harvest; lysate on anti-Flag M2 Affinity Gel overnight at 4 °C; four washes with lysis buffer containing 500 mM NaCl; UBE2J1 detected with anti-His

binding: binds
B1: His-tagged UBE2J1 (enzyme, UniProt Q9Y385 1-318)
chain: METRYNLKSPAVKRLMKEAAELKDPTDHYHAQPLEDNLFEWHFTVRGPPDSDFDGGVYHGRIVLPPEYPMKPPSIILLTANGRFEVGKKICLSISGHHPETWQPSWSIRTALLAIIGFMPTKGEGAIGSLDYTPEERRALAKKSQDFCCEGCGSAMKDVLLPLKSGSDSSQADQEAKELARQISFKAEVNSSGKTISESDLNHSFSLTDLQDDIPTTFQGATASTSYGLQNSSAASFHQPTQPVAKNTSMSPRQRRAQQQSQRRLSTSPDVIQGHQPRDNHTDHGGSAVLIVILTLALAALIFRRIYLANEYIFDFEL

From article PMC6114777
